The text below walks through data of PubChem BioAssay AID1487 (National Center for Advancing Translational Sciences (NCATS), 2009).

Some of the results follow. These are further read-outs of the screen, such as a control signal, another cell line or another target. No call is given for them. Most of these compounds were active or inconclusive in the main read-out, so they are no random draw. Potencies come from curve fits of mixed quality, noted in brackets.

As a reminder, the AC50 is the concentration at which the activity in the assay is half-maximal.

The experiment can be described thus: qHTS Assay for Modulators of Lamin A Splicing. The note with it: HeLa LMNA splicing GFP/RFP minigene ratio, 48 h. In outline:
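Read-out is the ratio of GFP to DsRed2 object intensity, acquired by 488 nm laser-scanning cytometry on HeLa lamin A-EGFP minigene reporter cells. Compound incubation 48 hrs at 37 °C in Opti-MEM with 2% FBS; DMSO 0.5% final.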
On the technique in general: qHTS replaces the single test concentration by a dilution series.

Where [1] appears, read: measured here: GFP splicing reporter channel.
[2] abbreviates: measured here: RFP viability control channel.

In the case of `O=C1CCCN1C(=O)CCC(=O)N1CCCC1=O`, the half-maximal activity concentration (AC50) is 0.708 µM [rising, full curve, poor fit] under setting [1] and 1.26 µM [rising, partial curve] under setting [2].
On to `O=C(NNC(=S)Nc1ccc(Cl)cc1Cl)c1ccc(N2CCOCC2)c([N+](=O)[O-])c1`, for which the AC50 under setting [2] was 31.6 µM [rising, single point].
As to `O=C(CSc1cn(CCNC(=O)c2ccc3ccccc3c2)c2ccccc12)NCc1ccco1`, the concentration at half-maximal activity (AC50) under setting [2] was 8.91 µM [rising, partial curve].
On the same count and under the same terms, the figure for `CCOC(=O)C1CCCN(Cc2nc(N)nc(Nc3ccc(OC)cc3)n2)C1` (centres undefined) is 28.2 µM [rising, single point]; for `CCOC(=O)COc1ccc(Br)cc1/C=C\c1[nH]c(=O)[nH]c(=O)c1[N+](=O)[O-]` it is 3.16 µM [rising, single point].
With `CCc1ccc(NC(=O)CSc2nc3ccccc3c(=O)n2CCN2CCOCC2)cc1`, the AC50 under setting [2] was 31.6 µM [rising, single point].
For the compound `COc1cc(C(=O)OCC(=O)NC2CCS(=O)(=O)C2)c([N+](=O)[O-])cc1OC` (centres undefined), the AC50 runs as follows: under setting [1], 17.8 µM [rising, partial curve]; under setting [2], 7.94 µM [rising, partial curve, poor fit].
In the case of `Cc1ccc(C(=O)Oc2ccc(N3C(=O)CCC3=O)c(C)c2)cc1`, the AC50 under setting [2] was 0.0708 µM [rising, full curve, poor fit].
Regarding `CCOC(=O)c1ccc(OC(=O)CCCCCN=C(N)N)cc1`, the half-maximal activity concentration (AC50) under setting [1] was 0.708 µM [falling, partial curve, poor fit].
In the case of `Cc1cccc(C(=O)NCc2nnc(SCC(=O)NC(C)c3ccccc3)n2C)c1` (centres undefined), the AC50 under setting [1] was 3.16 µM [falling, partial curve, poor fit] and the half-maximal activity concentration (AC50) under setting [2] was 3.98 µM [falling, single point].
For the compound `Nc1nc(NC(=O)c2ccc(Cl)cc2)nn1-c1ccccc1`, under setting [2], the AC50 was 17.8 µM [rising, single point].
Still for that read-out and setting: as for `Clc1cccc(Cl)c1-c1nnc2cccc(Cl)n12`, the figure is 8.91 µM [rising, partial curve].
With `OCc1ccc(O)c2ncccc12`, the AC50 under setting [1] is 0.0282 µM [falling, partial curve] and the half-maximal activity concentration (AC50) under setting [2] is 0.0316 µM [falling, partial curve].
On to `COc1ccc(CNC(=O)CSc2ccc(Br)cc2)cc1OC`, for which, under setting [1], the AC50 is 0.0126 µM [falling, full curve].
With `O=C(COc1ccccc1Br)NCCc1nc2ccccc2[nH]1`, the half-maximal activity concentration (AC50) under setting [2] is 12.6 µM [rising, single point].
The same measure, in the same setting: as for `Cc1cccc2c(C(=O)O)cc(-c3cccnc3)nc12`, the figure is 0.0178 µM [falling, full curve, poor fit].
With `CCN(CC)CCCNC(=O)c1cc2c(-c3ccc(Cl)cc3)nn(C)c2s1`, the AC50 is, setting by setting: under setting [1], 10 µM [rising, partial curve]; under setting [2], 12.6 µM [rising, partial curve].
For the compound `CCOC(=O)c1c(C)[nH]c(C(=O)OC/C(O)=C(\C#N)c2nc3ccccc3[nH]2)c1C`, the AC50 is, setting by setting: under setting [1], 35.5 µM [falling, single point]; under setting [2], 35.5 µM [falling, single point].
`CN(C)CCNC(=O)/C(=C/c1ccc(-c2cccc(Cl)c2)o1)NC(=O)c1ccccc1`: the half-maximal activity concentration (AC50) under setting [2] was 0.0562 µM [rising, full curve].
Take `COc1ccc(NC(=O)CCCN(C)S(=O)(=O)c2ccc(C)cc2)cc1`: the AC50 is 35.5 µM [rising, single point] under setting [1] and 22.4 µM [rising, single point] under setting [2].
In the case of `COc1ccccc1C1NC=C([N+](=O)[O-])C=C1[N+](=O)[O-]` (centres undefined), the AC50 under setting [1] is 12.6 µM [rising, single point].
As to `Cc1cccc(-n2ncc(C(=O)NCc3ccccn3)c2C2CCN(C(=O)OC(C)(C)C)CC2)c1`, under setting [2], the AC50 was 0.0224 µM [falling, full curve, poor fit].
Turning to `CCN(CC)S(=O)(=O)c1cccc(NC(=O)COc2ccc(C#N)cc2OC)c1`, the AC50 under setting [1] was 35.5 µM [rising, single point] and the AC50 under setting [2] is 35.5 µM [rising, single point].
Turning to `O=C(Cn1c(=O)oc2cc(S(=O)(=O)N3CCCC3)ccc21)NC1CCCc2ccccc21` (centres undefined), the AC50 was 0.794 µM [falling, partial curve, poor fit] under setting [1] and 0.794 µM [falling, single point] under setting [2].
As to `CCC(Sc1ncccc1C(=O)O)C(=O)N1CCOCC1` (centres undefined), the half-maximal activity concentration (AC50) was 0.501 µM [falling, full curve, poor fit] under setting [1] and 0.501 µM [falling, full curve, poor fit] under setting [2].
Consider `O=C(COc1ccc(Cl)cc1Cl)N/N=C1\CCCc2ccccc21`, for which the half-maximal activity concentration (AC50) is 10 µM [rising, partial curve] under setting [1] and 11.2 µM [rising, partial curve] under setting [2].
For the compound `CN(C)/C=C/C(=O)/C=C/c1ccc(Cl)cc1`, the AC50 under setting [1] is 22.4 µM [falling, partial curve, poor fit] and the AC50 under setting [2] was 31.6 µM [falling, partial curve].
Regarding `CCCC(C(=O)OCCN(CC)CC)(c1ccccc1)c1ccccc1`, the AC50 is, setting by setting: under setting [1], 0.0224 µM [falling, full curve, poor fit]; under setting [2], 0.501 µM [falling, partial curve, poor fit].
With `O=C(CN1C(=O)/C(=C/c2c(F)cccc2Cl)Oc2ccccc21)NCc1ccco1`, the AC50 under setting [1] was 3.16 µM [falling, full curve].
`CCOc1ccc(Br)cc1CNCCSc1nnnn1-c1ccccc1`: under setting [2], the AC50 was 0.0631 µM [falling, full curve, poor fit].
Consider `COc1ccc(CNS(=O)(=O)NCc2ccccc2)cc1OC`, for which the AC50 was 2.51 µM [falling, full curve] under setting [1] and 10 µM [falling, single point] under setting [2].
For the compound `CCOC(=O)c1c(NC(=O)CSc2nnc(-c3c[nH]c4ccccc34)n2CCOC)sc2c1CCCCC2`, the half-maximal activity concentration (AC50) under setting [1] was 17.8 µM [rising, single point] and the half-maximal activity concentration (AC50) under setting [2] was 35.5 µM [rising, single point].
Consider `Cc1ccc2c(c1)C1NC(=S)NC(C)(O2)C1C(=O)Nc1ccc(Cl)cc1` (centres undefined), for which the half-maximal activity concentration (AC50) under setting [2] is 0.126 µM [rising, full curve, poor fit].
As to `CC1CN(C(=O)C(C)N2CCN(c3ccccc3Cl)CC2)CC(C)O1` (centres undefined), under setting [1], the AC50 is 2.82 µM [rising, single point].
